Results are given in words; binding and its absence hold for the method and conditions named. Binding seen in cells or lysates may run through a third protein. Here binding means that the protein was enriched with, or labelled near, the bait; the list need not be complete.
Target: SARS-CoV-2 ORF7b, SFB- or BioID2-tagged (SARS-CoV-2) (UniProt P0DTD8)
Test: affinity purification with mass spectrometry + proximity labelling

B1: STX6 (protein, UniProt O43752 1-255)
chain: MSMEDPFFVVKGEVQKAVNTAQGLFQRWTELLQDPSTATREEIDWTTNELRNNLRSIEWDLEDLDETISIVEANPRKFNLDATELSIRKAFITSTRQVVRDMKDQMSTSSVQALAERKNRQALLGDSGSQNWSTGTTDKYGRLDRELQRANSHFIEEQQAQQQLIVEQQDEQLELVSGSIGVLKNMSQRIGGELEEQAVMLEDFSHELESTQSRLDNVMKKLAKVSHMTSDRRQWCAIAILFAVLLVVLILFLVL
For B1, the binding was “binds”.

B2: STX10 (protein, UniProt O60499 1-249)
chain: MSLEDPFFVVRGEVQKAVNTARGLYQRWCELLQESAAVGREELDWTTNELRNGLRSIEWDLEDLEETIGIVEANPGKFKLPAGDLQERKVFVERMREAVQEMKDHMVSPTAVAFLERNNREILAGKPAAQKSPSDLLDASAVSATSRYIEEQQATQQLIMDEQDQQLEMVSGSIQVLKHMSGRVGEELDEQGIMLDAFAQEMDHTQSRMDGVLRKLAKVSHMTSDRRQWCAIAVLVGVLLLVLILLFSL
With B2 the binding was “binds”.

B3: STX12 (protein, UniProt Q86Y82 1-276)
chain: MSYGPLDMYRNPGPSGPQLRDFSSIIQTCSGNIQRISQATAQIKNLMSQLGTKQDSSKLQENLQQLQHSTNQLAKETNELLKELGSLPLPLSTSEQRQQRLQKERLMNDFSAALNNFQAVQRRVSEKEKESIARARAGSRLSAEERQREEQLVSFDSHEEWNQMQSQEDEVAITEQDLELIKERETAIRQLEADILDVNQIFKDLAMMIHDQGDLIDSIEANVESSEVHVERATEQLQRAAYYQKKSRKKMCILVLVLSVIILILGLIIWLVYKTK
B3 was tested, and the binding was “binds”.

B4: VAMP4 (protein, UniProt O75379 1-141)
chain: MPPKFKRHLNDDDVTGSVKSERRNLLEDDSDEEEDFFLRGPSGPRFGPRNDKIKHVQNQVDEVIDVMQENITKVIERGERLDELQDKSESLSDNATAFSNRSKQLRRQMWWRGCKIKAIMALVAAILLLVIIILIVMKYRT
In the case of B4, the binding is reported as “binds”.

B5: NAPA (protein, UniProt P54920 1-295)
chain: MDNSGKEAEAMALLAEAERKVKNSQSFFSGLFGGSSKIEEACEIYARAANMFKMAKNWSAAGNAFCQAAQLHLQLQSKHDAATCFVDAGNAFKKADPQEAINCLMRAIEIYTDMGRFTIAAKHHISIAEIYETELVDIEKAIAHYEQSADYYKGEESNSSANKCLLKVAGYAALLEQYQKAIDIYEQVGTNAMDSPLLKYSAKDYFFKAALCHFCIDMLNAKLAVQKYEELFPAFSDSRECKLMKKLLEAHEEQNVDSYTESVKEYDSISRLDQWLTTMLLRIKKTIQGDEEDLR
B5 was tested, and the binding was “binds”.

B6: NAPG (protein, UniProt Q99747 1-312)
chain: MAAQKINEGLEHLAKAEKYLKTGFLKWKPDYDSAASEYGKAAVAFKNAKQFEQAKDACLREAVAHENNRALFHAAKAYEQAGMMLKEMQKLPEAVQLIEKASMMYLENGTPDTAAMALERAGKLIENVDPEKAVQLYQQTANVFENEERLRQAVELLGKASRLLVRGRRFDEAALSIQKEKNIYKEIENYPTCYKKTIAQVLVHLHRNDYVAAERCVRESYSIPGFNGSEDCAALEQLLEGYDQQDQDQVSDVCNSPLFKYMDNDYAKLGLSLVVPGGGIKKKSPATPQAKPDGVTATAADEEEDEYSGGLC
With B6 the binding was “binds”.

Source: article doi:10.1101/2020.12.31.424961
